Values quoted from earlier work as cited in patent US20170369926A1, “NEW MARKERS FOR EARLY DIAGNOSIS OF OVARIAN CANCER, MONITORING DURING THERAPY, AND NEW THERAPY OPTIONS DURING AND AFTER CHEMOTHERAPY” (Bioventures, LLC, priority 2011, published 2017).
At least one compound was matched to its structure with a doubt left.

Conditions: oral

CN(C)C(=O)COC(=O)Cc1ccc(OC(=O)c2ccc(NC(=N)N)cc2)cc1.CS(=O)(=O)O [FOY-305]
effective dose orally in humans: 100 to 1000 mg
